# Experimental data published in patent US10501518B2 (priority 2013, dated 2019).
# Assay: general procedure: Fmoc solid-phase peptide synthesis; NovaPEG rink amide resin (EMD-Millipore); HBTU/HOBt/DIEA
# Details: whole synthesis, analytical RP-HPLC, relative peak area
substance,measurement,value
SVSEIQLMHNLGKWLNSMERVEWLRKKLQDVHNF-NH2,final HPLC purity,>99%
